Source: article PMC7804115
No constants are given. Whether binding was seen depends on the method and setting. Binding seen in cells or lysates may run through a third protein. Binding can be weak; no strength is given.

Target: T1, mouse Jaw1 long form (Ms LJaw1) (mouse) (UniProt Q60664)
T1 sequence: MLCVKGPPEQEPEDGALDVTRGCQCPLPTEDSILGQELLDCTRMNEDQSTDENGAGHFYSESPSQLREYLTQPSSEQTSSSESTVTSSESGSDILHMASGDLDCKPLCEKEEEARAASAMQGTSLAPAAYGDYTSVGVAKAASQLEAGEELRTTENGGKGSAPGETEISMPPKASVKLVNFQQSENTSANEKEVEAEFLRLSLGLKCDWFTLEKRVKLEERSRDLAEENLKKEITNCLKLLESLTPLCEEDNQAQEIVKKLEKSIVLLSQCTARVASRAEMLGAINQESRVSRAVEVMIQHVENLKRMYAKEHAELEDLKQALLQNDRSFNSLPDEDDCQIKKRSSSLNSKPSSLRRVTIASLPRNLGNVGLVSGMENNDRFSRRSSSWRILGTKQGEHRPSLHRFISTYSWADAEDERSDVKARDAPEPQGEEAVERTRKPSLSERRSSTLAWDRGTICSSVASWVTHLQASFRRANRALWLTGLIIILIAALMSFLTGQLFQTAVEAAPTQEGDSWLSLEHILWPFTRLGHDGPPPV
Experiment: co-IP; FLAG Ms LJaw1 co-expressed with GFP-fused Jaw1 or mutants in HEK293 cells for 24 h; lysis in 50 mM Tris-HCl pH 7.6, 150 mM NaCl, 0.5% NP-40; anti-FLAG tag antibody beads, 4 °C, 2 h; western blot with anti-FLAG and anti-GFP antibodies

| binding | Substance |
| --- | --- |
| binds | GFP Ms Jaw1 Coil (mouse) (domain or fragment) |
| binds weakly | GFP Ms LJaw1 ΔTM (mouse) (domain or fragment) |
